# The list does not hold the whole screen: it gathers tests that were run many times, whatever their T/C, doses with no T/C, and many T/C values between a quarter and a half above the control. Further doses and runs are listed elsewhere. T/C gives the treated animals as a percentage of the vehicle group. Some entries give survivors of the animals treated and no T/C: the source files T/C as zero there, which appears to mark a toxic dose or a test without result, not a measured value. Some doses without a T/C left all or most animals alive at the check, yet need not have been tolerated: survival well below the control is almost never listed, so the zero probably covers shortened survival too. Counts of survivors are from the toxicity check (mostly the fifth day) where no day follows; animals may have died later. Schedules are NCI's codes, read here as Q, the interval in days (D) or hours (H), X, the number of doses. Some entries were tested several times; their values stand side by side, smallest first. For survival time, this PubChem deposit counts one and a half times the control or more as active, and values a quarter to a half above the control carry no call in these data; other NCI protocols may use other cut-offs. Some T/C values carry the count of animals alive at the toxicity check (mostly the fifth day); where none is given, no animal had died by that day.
# Tested on: P388 leukemia ip, CD2F1 mice, survival T/C
# Assay: NCI In Vivo Anticancer Drug Screen. Data for tumor model P388 Leukemia (intraperitoneal) in CD2F1 (CDF1) mice
# Conditions: T/C endpoint: median survival time, higher T/C = longer survival
# [1] = dose: 50.0 mg/kg/injection, schedule: Q04DX002 (ip), vehicle: water
# [2] = dose: 50.0 mg/kg/injection, schedule: Q01DX009 (ip), vehicle: Klucel (hydroxypropylcellulose) (HPC)
# [3] = dose: 200.0 mg/kg/injection, schedule: Q01DX009 (ip), vehicle: Klucel (hydroxypropylcellulose) (HPC)
# [4] = dose: 200.0 mg/kg/injection, schedule: Q01DX009 (ip), vehicle: saline
# [5] = dose: 25.0 mg/kg/injection, schedule: Q01DX005 (ip), vehicle: Klucel (hydroxypropylcellulose) (HPC)
# [6] = dose: 50.0 mg/kg/injection, schedule: Q01DX005 (ip), vehicle: Klucel (hydroxypropylcellulose) (HPC)
# [7] = dose: 100.0 mg/kg/injection, schedule: Q01DX005 (ip), vehicle: Klucel (hydroxypropylcellulose) (HPC)
# [8] = dose: 200.0 mg/kg/injection, schedule: Q01DX005 (ip), vehicle: Klucel (hydroxypropylcellulose) (HPC)
structure (smiles),measurement,setting,value
O=C1c2c(O)cccc2-c2nn(CCNCCO)c3ccc(NCCNCCO)c1c23,T/C,"dose: 6.25 mg/kg/injection, schedule: Q04DX002 (ip), vehicle: water",134 % of control
same,T/C,"dose: 12.5 mg/kg/injection, schedule: Q04DX002 (ip), vehicle: water",142 % of control
same,T/C,[1],142 % of control
same,survivor count,[1],4 of 6
same,survivor count,"dose: 100.0 mg/kg/injection, schedule: Q04DX002 (ip), vehicle: water",1 of 6 and 6 of 6
same,survivor count,"dose: 200.0 mg/kg/injection, schedule: Q04DX002 (ip), vehicle: water",1 of 6
O=C(O)CCCCCCCCCCNC(=O)CI,survivor count,[2],1 of 6
same,survivor count,"dose: 100.0 mg/kg/injection, schedule: Q01DX009 (ip), vehicle: Klucel (hydroxypropylcellulose) (HPC)",1 of 6
same,survivor count,[3],0 of 6
S=C(Nc1ccc(Cl)cc1)SC1CCCCC1,T/C,[4],128 % of control
Nc1c(/C=C/c2ccccc2)[nH]c(=O)[nH]c1=O,survivor count,"dose: 200.0 mg/kg/injection, schedule: Q04DX002 (ip), vehicle: saline",5 of 6
same,survivor count,"dose: 400.0 mg/kg/injection, schedule: Q04DX002 (ip), vehicle: saline",6 of 6
c1ccc2c(c1)ccc1[nH]c3ccc4ccccc4c3c12,T/C,"dose: 6.25 mg/kg/injection, schedule: Q01DX005 (ip), vehicle: Klucel (hydroxypropylcellulose) (HPC), evaluated on day 20",92 % of control
same,T/C,"dose: 6.25 mg/kg/injection, schedule: Q01DX005 (ip), vehicle: Klucel (hydroxypropylcellulose) (HPC), evaluated on day 30","108, 125, 142 % of control"
same,T/C,"dose: 12.5 mg/kg/injection, schedule: Q01DX005 (ip), vehicle: Klucel (hydroxypropylcellulose) (HPC), evaluated on day 20",115 % of control [5 of 6 alive]
same,T/C,"dose: 12.5 mg/kg/injection, schedule: Q01DX005 (ip), vehicle: Klucel (hydroxypropylcellulose) (HPC), evaluated on day 30","86, 98, 99 % of control"
same,survivor count,[5],"2 of 6, 3 of 6, 6 of 6"
same,survivor count,[6],0 of 6 and 6 of 6
same,survivor count,[7],2 of 6
same,survivor count,[8],6 of 6
C[C@]12CCC[C@@H]3C[C@@]31C[C@@H]([C@@]1(C)CO1)CC2,survivor count,[2],6 of 6
same,survivor count,[3],6 of 6
CCOC(=O)Nc1ccc2nc(N3CCCCC3)sc2c1,survivor count,"dose: 200.0 mg/kg/injection, schedule: Q01DX009 (ip), vehicle: saline with Tween-80",6 of 6
S=C(NCCNC(=S)[S][Sn]([c]1ccccc1)([c]1ccccc1)[c]1ccccc1)[S][Sn]([c]1ccccc1)([c]1ccccc1)[c]1ccccc1,T/C,"dose: 11.0 mg/kg/injection, schedule: Q01DX009 (ip), vehicle: saline with Tween-80",131 % of control
same,T/C,"dose: 16.5 mg/kg/injection, schedule: Q01DX009 (ip), vehicle: saline with Tween-80",133 % of control
same,T/C,"dose: 25.0 mg/kg/injection, schedule: Q01DX009 (ip), vehicle: saline with Tween-80",136 % of control
same,T/C,"dose: 37.5 mg/kg/injection, schedule: Q01DX009 (ip), vehicle: saline with Tween-80",136 % of control
COc1ccc(/C=C/C(=O)C(C)(CN(C)C)CN(C)C)cc1,T/C,"dose: 60.0 mg/kg/injection, schedule: Q01DX005 (ip), vehicle: saline",128 and 130 % of control
same,T/C,"dose: 120.0 mg/kg/injection, schedule: Q01DX005 (ip), vehicle: saline",128 % of control
same,survivor count,"dose: 240.0 mg/kg/injection, schedule: Q01DX005 (ip), vehicle: saline",0 of 6 and 3 of 6
NC(CS)=NCC12CC3CC(CC(C3)C1)C2,survivor count,"dose: 60.0 mg/kg/injection, schedule: Q01DX005 (ip), vehicle: saline with Tween-80",0 of 6
same,survivor count,"dose: 120.0 mg/kg/injection, schedule: Q01DX005 (ip), vehicle: saline with Tween-80",0 of 6
same,survivor count,"dose: 240.0 mg/kg/injection, schedule: Q01DX005 (ip), vehicle: saline with Tween-80",0 of 6
C[N+]1(C2CCCCC2c2cccc(O)c2)CCCC1 (configuration not stated),survivor count,"dose: 3.12 mg/kg/injection, schedule: Q01DX009 (ip), vehicle: saline",0 of 6
same,survivor count,"dose: 6.25 mg/kg/injection, schedule: Q01DX009 (ip), vehicle: saline",0 of 6
same,survivor count,"dose: 12.5 mg/kg/injection, schedule: Q01DX009 (ip), vehicle: saline",0 of 6
same,survivor count,"dose: 50.0 mg/kg/injection, schedule: Q01DX009 (ip), vehicle: saline",0 of 6
same,survivor count,"dose: 100.0 mg/kg/injection, schedule: Q01DX009 (ip), vehicle: saline",0 of 6
same,survivor count,[4],0 of 6
CSC(SC)=C(C#N)C#N,survivor count,"dose: 200.0 mg/kg/injection, schedule: Q04DX003 (ip), vehicle: saline",3 of 6
COC1(OC)CCN2OC(CO)CC21 (configuration not stated),survivor count,"dose: 200.0 mg/kg/injection, schedule: Q04DX003 (ip), vehicle: saline with Tween-80",6 of 6
same,survivor count,"dose: 400.0 mg/kg/injection, schedule: Q04DX003 (ip), vehicle: saline with Tween-80",0 of 6
O=C1CCSC(=S)N1N1CCN(N2C(=O)CCSC2=S)CC1,survivor count,"dose: 400.0 mg/kg/injection, schedule: Q01DX001 (ip), vehicle: Klucel (hydroxypropylcellulose) (HPC)",6 of 6
N[C@H](C(=O)O)[C@@H]1CC(S(=O)(=O)c2ccccc2)=NO1,survivor count,"dose: 50.0 mg/kg/injection, schedule: Q01DX005 (ip), vehicle: distilled water + Tween-80",2 of 6
same,survivor count,"dose: 100.0 mg/kg/injection, schedule: Q01DX005 (ip), vehicle: distilled water + Tween-80",0 of 6
same,survivor count,"dose: 200.0 mg/kg/injection, schedule: Q01DX005 (ip), vehicle: distilled water + Tween-80",0 of 6
O=C1C(F)=C(F)C(=O)C2(F)CC=CCC12F (configuration not stated),survivor count,"dose: 12.5 mg/kg/injection, schedule: Q01DX005 (ip), vehicle: Klucel (hydroxypropylcellulose) (HPC)",0 of 6
same,survivor count,[5],0 of 6
same,survivor count,[6],0 of 6
same,survivor count,"dose: 50.0 mg/kg/injection, schedule: Q01DX005 (ip), vehicle: Klucel + Tween-80",0 of 6
same,survivor count,"dose: 100.0 mg/kg/injection, schedule: Q01DX005 (ip), vehicle: Klucel + Tween-80",0 of 6
same,survivor count,"dose: 200.0 mg/kg/injection, schedule: Q01DX005 (ip), vehicle: Klucel + Tween-80",0 of 6
CCC1=C[C@H]2CN(CCc3c([nH]c4ccccc34)[C@@](C(=O)OC)(c3cc4c(cc3OC)N(C)[C@H]3C(C(=O)OC)=C[C@]5(CC)C=CCN6CC[C@]43[C@@H]65)C2)C1,T/C,"dose: 16.0 mg/kg/injection, schedule: Q01DX001 (ip), vehicle: other",126 % of control
same,T/C,"dose: 32.0 mg/kg/injection, schedule: Q01DX001 (ip), vehicle: distilled water + Tween-80",146 % of control
same,T/C,"dose: 32.0 mg/kg/injection, schedule: Q01DX001 (ip), vehicle: other",131 and 133 % of control
same,T/C,"dose: 64.0 mg/kg/injection, schedule: Q01DX001 (ip), vehicle: other",127 % of control
same,survivor count,"dose: 128.0 mg/kg/injection, schedule: Q01DX001 (ip), vehicle: distilled water + Tween-80",6 of 6
same,survivor count,"dose: 512.0 mg/kg/injection, schedule: Q01DX001 (ip), vehicle: distilled water + Tween-80",0 of 6
COc1ccc2c(c1OC)C(O)N1CCc3cc4c(cc3C1=C2C(=O)c1ccccc1)OCO4 (configuration not stated),survivor count,[7],0 of 6 and 1 of 5
same,survivor count,[8],0 of 6
CCOC(=O)/C(Cl)=N/Nc1ccccc1,survivor count,"dose: 200.0 mg/kg/injection, schedule: Q01DX005 (ip), vehicle: saline with Tween-80",4 of 6
COc1cc(NC(C)CCCN)c2ncccc2c1Sc1ccc(Cl)cc1 (configuration not stated),survivor count,"dose: 12.5 mg/kg/injection, schedule: Q01DX009 (ip), vehicle: saline with Tween-80",5 of 6

# — PubChem BioAssay AID330 (DTP/NCI, 2004)
